Data as given in paper PMC9964616.
Results are given in words; binding and its absence hold for the method and conditions named. Binding seen in cells or lysates may run through a third protein. Some entries that bind do so weakly or less than the wild type.

Protein sequences, listed by entry. Tags and fused reporters are not part of them. Residues count along the entry.
UniProt O14786, residues 22-923: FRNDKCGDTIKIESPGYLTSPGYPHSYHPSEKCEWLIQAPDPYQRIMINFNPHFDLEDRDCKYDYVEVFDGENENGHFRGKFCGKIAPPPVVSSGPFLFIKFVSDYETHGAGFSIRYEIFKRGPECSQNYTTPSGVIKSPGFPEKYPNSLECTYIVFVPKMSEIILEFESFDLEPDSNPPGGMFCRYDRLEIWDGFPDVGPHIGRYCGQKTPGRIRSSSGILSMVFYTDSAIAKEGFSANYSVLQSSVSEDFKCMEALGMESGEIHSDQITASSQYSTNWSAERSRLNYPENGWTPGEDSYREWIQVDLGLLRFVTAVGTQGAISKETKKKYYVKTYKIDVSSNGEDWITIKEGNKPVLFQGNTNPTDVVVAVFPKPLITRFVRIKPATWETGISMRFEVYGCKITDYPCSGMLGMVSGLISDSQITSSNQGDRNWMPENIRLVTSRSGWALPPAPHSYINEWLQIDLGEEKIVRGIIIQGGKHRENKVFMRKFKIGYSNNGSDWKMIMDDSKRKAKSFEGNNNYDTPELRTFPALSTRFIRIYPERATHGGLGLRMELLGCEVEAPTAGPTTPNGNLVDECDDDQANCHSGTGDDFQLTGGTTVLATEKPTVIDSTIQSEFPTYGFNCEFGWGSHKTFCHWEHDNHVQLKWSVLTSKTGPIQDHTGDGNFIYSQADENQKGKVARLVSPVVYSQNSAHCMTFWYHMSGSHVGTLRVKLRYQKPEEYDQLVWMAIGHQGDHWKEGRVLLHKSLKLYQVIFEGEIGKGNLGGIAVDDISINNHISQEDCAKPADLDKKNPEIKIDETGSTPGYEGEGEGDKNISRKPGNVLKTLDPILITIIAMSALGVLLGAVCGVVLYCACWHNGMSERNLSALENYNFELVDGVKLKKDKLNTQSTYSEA
UniProt P35968, residues 20-1356: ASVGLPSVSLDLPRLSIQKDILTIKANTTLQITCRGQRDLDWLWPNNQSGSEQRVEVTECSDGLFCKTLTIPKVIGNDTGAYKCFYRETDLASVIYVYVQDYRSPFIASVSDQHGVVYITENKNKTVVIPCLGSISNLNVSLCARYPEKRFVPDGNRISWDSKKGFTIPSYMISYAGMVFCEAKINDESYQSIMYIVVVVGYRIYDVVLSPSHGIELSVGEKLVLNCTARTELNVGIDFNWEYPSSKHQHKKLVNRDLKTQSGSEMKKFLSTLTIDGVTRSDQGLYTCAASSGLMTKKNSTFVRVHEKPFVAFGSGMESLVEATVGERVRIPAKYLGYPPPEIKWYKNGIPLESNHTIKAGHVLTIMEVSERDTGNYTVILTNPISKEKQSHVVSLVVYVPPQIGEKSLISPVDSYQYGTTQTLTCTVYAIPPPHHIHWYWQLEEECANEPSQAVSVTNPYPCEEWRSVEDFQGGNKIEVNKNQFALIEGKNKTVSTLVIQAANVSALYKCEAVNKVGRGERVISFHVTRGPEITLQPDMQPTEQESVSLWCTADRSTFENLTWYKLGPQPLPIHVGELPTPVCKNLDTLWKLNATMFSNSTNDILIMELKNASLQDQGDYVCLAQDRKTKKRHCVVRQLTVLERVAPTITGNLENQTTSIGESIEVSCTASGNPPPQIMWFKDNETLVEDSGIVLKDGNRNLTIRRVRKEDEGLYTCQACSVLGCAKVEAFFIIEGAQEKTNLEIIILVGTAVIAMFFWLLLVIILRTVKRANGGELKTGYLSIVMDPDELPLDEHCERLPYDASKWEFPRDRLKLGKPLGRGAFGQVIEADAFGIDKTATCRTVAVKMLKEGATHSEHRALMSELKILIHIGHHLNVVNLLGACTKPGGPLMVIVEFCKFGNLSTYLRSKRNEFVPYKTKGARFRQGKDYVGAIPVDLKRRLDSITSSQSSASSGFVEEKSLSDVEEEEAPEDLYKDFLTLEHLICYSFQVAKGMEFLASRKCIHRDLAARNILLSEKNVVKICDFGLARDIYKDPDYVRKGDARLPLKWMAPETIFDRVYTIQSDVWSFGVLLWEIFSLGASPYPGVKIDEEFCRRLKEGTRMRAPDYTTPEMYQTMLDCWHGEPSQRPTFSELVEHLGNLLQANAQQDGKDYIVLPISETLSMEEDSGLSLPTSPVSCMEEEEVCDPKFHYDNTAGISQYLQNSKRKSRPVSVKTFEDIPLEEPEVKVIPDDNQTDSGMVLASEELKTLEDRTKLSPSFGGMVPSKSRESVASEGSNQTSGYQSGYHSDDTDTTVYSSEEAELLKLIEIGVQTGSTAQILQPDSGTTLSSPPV

Target: T1, Vascular endothelial cadherin (human (endogenous in HUVEC)) (UniProt P33151)
T1 sequence: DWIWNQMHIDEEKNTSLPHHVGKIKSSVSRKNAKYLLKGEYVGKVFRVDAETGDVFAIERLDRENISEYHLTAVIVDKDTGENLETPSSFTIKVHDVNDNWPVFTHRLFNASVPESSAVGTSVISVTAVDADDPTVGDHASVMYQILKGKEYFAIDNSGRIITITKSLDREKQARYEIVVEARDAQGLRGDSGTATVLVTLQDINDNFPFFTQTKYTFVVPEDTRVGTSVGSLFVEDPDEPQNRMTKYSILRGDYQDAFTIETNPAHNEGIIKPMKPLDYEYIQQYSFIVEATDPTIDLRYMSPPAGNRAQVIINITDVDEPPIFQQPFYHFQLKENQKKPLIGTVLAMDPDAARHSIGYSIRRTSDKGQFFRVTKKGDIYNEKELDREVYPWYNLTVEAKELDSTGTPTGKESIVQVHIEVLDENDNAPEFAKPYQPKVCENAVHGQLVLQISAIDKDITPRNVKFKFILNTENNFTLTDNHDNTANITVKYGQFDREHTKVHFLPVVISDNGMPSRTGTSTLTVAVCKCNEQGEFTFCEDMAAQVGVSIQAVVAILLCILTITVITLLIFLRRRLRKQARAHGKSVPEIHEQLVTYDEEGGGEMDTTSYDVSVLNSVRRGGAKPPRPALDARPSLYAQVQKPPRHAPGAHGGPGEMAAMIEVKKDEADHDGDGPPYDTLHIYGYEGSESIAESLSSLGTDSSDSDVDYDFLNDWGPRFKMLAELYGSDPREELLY
Test: co-IP; HUVEC total protein in RIPA buffer, precleared with anti-species-specific IgG beads; incubated with antibodies to NRP1, VE-Cad and VEGFR2 for 1 h at 4 °C, then protein A/G agarose beads overnight at 4 °C; Western blotting

| binding | Substance |
| --- | --- |
| binds | Neuropilin 1 (from UniProt O14786 22-923) (receptor) |
| binds | VEGFR2 (from UniProt P35968 20-1356) (receptor) |
